Assay results published in article PMC1937011.
No constants are given. Whether binding was seen depends on the method and setting. In cells and extracts the contact can be indirect. Some entries that bind do so weakly or less than the wild type. Tags and fused reporters may be left off the sequences shown.

Chains of the proteins cited; added tags and fusions are not shown.
UniProt P9WJD9: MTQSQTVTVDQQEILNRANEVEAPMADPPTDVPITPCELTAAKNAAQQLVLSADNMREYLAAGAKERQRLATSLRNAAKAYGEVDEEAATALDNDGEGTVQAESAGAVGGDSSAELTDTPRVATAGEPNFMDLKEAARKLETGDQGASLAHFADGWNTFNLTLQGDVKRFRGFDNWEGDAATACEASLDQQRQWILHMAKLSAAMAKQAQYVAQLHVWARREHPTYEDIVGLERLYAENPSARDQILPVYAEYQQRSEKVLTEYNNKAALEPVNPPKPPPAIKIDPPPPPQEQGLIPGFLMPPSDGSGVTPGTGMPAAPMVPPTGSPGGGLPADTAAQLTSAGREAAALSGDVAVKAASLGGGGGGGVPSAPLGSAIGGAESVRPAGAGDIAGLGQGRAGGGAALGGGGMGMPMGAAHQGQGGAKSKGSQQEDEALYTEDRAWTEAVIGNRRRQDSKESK

Target: T1, GST-tagged Rv3879c (M. tuberculosis) (UniProt P9WJC1)
T1 sequence: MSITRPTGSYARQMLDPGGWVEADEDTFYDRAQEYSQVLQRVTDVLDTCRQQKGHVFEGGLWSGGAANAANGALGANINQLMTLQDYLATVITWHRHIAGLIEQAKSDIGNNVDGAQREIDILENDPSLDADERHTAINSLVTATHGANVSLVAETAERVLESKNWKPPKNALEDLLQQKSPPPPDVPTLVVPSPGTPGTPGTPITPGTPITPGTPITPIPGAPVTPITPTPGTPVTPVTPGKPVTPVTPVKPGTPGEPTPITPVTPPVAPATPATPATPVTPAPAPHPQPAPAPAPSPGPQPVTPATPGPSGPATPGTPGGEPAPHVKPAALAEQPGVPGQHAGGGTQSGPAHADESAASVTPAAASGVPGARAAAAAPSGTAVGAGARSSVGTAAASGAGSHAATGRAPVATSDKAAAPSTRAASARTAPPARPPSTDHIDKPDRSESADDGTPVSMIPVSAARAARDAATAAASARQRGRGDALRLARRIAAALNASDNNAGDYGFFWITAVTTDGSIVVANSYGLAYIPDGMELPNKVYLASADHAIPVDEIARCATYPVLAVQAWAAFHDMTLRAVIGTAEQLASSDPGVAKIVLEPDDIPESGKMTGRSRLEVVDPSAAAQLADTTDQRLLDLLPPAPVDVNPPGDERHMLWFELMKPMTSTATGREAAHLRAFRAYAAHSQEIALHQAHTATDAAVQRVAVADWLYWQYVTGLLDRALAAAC

## V5-tagged EspBT (from UniProt P9WJD9 1-460)
  binding: binds
